Experimental data: PubChem BioAssay AID743121 (NCATS, 2013)
The deposit covers about 26,000 reagents; this is a random part of them. Of all reagents, 167 (0.63%) are marked active. 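Calls are per gene from RSA p-values that are not deposited; an individual active-marked siRNA can sensitise only weakly.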

Aim: 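Knock-downs that sensitise breast cancer cells to camptothecin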 (primary screen)
Cell system: MDA-MB-231 cells, a human breast cancer line
Reagent: single siRNA against human genes, 20 nM siRNA (0.8 pmol per well)
Timing: 120 h (drug added 48 h after transfection, read 72 h later)
Conditions: camptothecin 20 nM (about EC30) for 72 h; vehicle 0.1% DMSO in parallel plates
Measurement: 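Cell viability by ATP luminescence (CellTiter-Glo) as % of non-targeting siRNA wells, and the log2 ratio of viability without drug over viability with camptothecin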
Reading the numbers: log2 vehicle/camptothecin viability: higher = stronger sensitisation to camptothecin; viability with camptothecin and viability without drug: higher = more viable cells
Active means: 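Each gene scored by redundant siRNA activity (RSA) over its individual siRNA ratios; a gene is called active at p < 0.001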

The opening 3 entries as a preview:
gene symbol | PubChem SID | log2 vehicle/camptothecin viability | viability with camptothecin (% of control) | viability without drug (% of control) | Call
DYNC1H1 (dynein cytoplasmic 1 heavy chain 1) | SID164361873 | 0.0417 | 45.6 | 47 | inactive
DYNC1H1 (dynein cytoplasmic 1 heavy chain 1) | SID164361874 | -0.222 | 44.4 | 38 | inactive
DYNC1H1 (dynein cytoplasmic 1 heavy chain 1) | SID164361875 | -0.576 | 113 | 75.7 | inactive

Results, repeating the preview:
gene symbol | PubChem SID | log2 vehicle/camptothecin viability | viability with camptothecin (% of control) | viability without drug (% of control) | Call
DYNC1H1 (dynein cytoplasmic 1 heavy chain 1) | SID164361873 | 0.0417 | 45.6 | 47 | inactive
DYNC1H1 (dynein cytoplasmic 1 heavy chain 1) | SID164361874 | -0.222 | 44.4 | 38 | inactive
DYNC1H1 (dynein cytoplasmic 1 heavy chain 1) | SID164361875 | -0.576 | 113 | 75.7 | inactive
DYNC1H1 (dynein cytoplasmic 1 heavy chain 1) | SID164361876 | -0.363 | 88.4 | 68.8 | inactive
BMP8B (bone morphogenetic protein 8b) | SID164355443 | 0.366 | 66.5 | 85.7 | inactive
BMP8B (bone morphogenetic protein 8b) | SID164355445 | 0.0731 | 67.8 | 71.3 | inactive
BMP8B (bone morphogenetic protein 8b) | SID164355446 | -0.439 | 78.8 | 58.1 | inactive
BMP8B (bone morphogenetic protein 8b) | SID164355449 | 0.0895 | 49.8 | 53 | inactive
MBTPS1 (membrane bound transcription factor peptidase, site 1) | SID164399413 | -0.306 | 99.5 | 80.5 | inactive
MBTPS1 (membrane bound transcription factor peptidase, site 1) | SID164399415 | -0.00259 | 80.7 | 80.6 | inactive
MBTPS1 (membrane bound transcription factor peptidase, site 1) | SID164399418 | 0.386 | 67.1 | 87.7 | inactive
MBTPS1 (membrane bound transcription factor peptidase, site 1) | SID164399421 | -0.0902 | 44.6 | 41.9 | inactive
LRP2 (LDL receptor related protein 2) | SID164374151 | -0.468 | 89.9 | 65 | inactive
LRP2 (LDL receptor related protein 2) | SID164374157 | -0.304 | 96.4 | 78.1 | inactive
LRP2 (LDL receptor related protein 2) | SID164374158 | -0.125 | 89.7 | 82.2 | inactive
LRP2 (LDL receptor related protein 2) | SID164374159 | -0.078 | 91.5 | 86.7 | inactive
PFKL (phosphofructokinase, liver type) | SID164380342 | -0.693 | 98.2 | 60.7 | inactive
PFKL (phosphofructokinase, liver type) | SID164380346 | -0.411 | 95 | 71.4 | inactive
PFKL (phosphofructokinase, liver type) | SID164380347 | 0.354 | 34.2 | 43.7 | inactive
PFKL (phosphofructokinase, liver type) | SID164380349 | -0.199 | 14.1 | 12.3 | inactive
ACP5 (acid phosphatase 5, tartrate resistant) | SID164352061 | -0.103 | 79.3 | 73.8 | inactive
ACP5 (acid phosphatase 5, tartrate resistant) | SID164352062 | -0.191 | 98.2 | 86 | inactive
ACP5 (acid phosphatase 5, tartrate resistant) | SID164352063 | -0.427 | 76.7 | 57.1 | inactive
ACP5 (acid phosphatase 5, tartrate resistant) | SID164352065 | -0.0468 | 75.5 | 73.1 | inactive
INCENP (inner centromere protein) | SID164371569 | -0.492 | 44.4 | 31.5 | inactive
INCENP (inner centromere protein) | SID164371571 | -0.387 | 17.5 | 13.4 | inactive
INCENP (inner centromere protein) | SID164371572 | -0.904 | 59.6 | 31.8 | inactive
INCENP (inner centromere protein) | SID164371575 | -0.355 | 76.2 | 59.6 | inactive
